Results are given in words; binding and its absence hold for the method and conditions named. Some results given as binding are weak or reduced against the parent protein; the word gives no strength.
Tests used:
[1] = biological target: T1, human PD-L1 (human, UniProt Q9NZQ7 19-238, limits assumed); assay: sensorgram, response in nm against time in sec, titled 'Sample ID: B11 - by Loading Sample ID' (PD-L1 Human loaded, B11 as the sample); concentration of B11 not given
T1 construct: also called PD-1 ligand 1; CD274

Amino acid sequences for entries named in this document (tags omitted). A change or cut given only in a name is not applied to a line headed by its entry.
UniProt Q9NZQ7: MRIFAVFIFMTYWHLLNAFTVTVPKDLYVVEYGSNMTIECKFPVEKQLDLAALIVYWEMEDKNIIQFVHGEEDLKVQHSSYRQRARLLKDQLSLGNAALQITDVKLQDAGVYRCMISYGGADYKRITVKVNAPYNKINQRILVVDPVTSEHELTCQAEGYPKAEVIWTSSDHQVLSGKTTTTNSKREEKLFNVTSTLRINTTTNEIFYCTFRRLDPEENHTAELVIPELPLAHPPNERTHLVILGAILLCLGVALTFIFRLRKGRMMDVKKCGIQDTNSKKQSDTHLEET
UniProt Q9EP73: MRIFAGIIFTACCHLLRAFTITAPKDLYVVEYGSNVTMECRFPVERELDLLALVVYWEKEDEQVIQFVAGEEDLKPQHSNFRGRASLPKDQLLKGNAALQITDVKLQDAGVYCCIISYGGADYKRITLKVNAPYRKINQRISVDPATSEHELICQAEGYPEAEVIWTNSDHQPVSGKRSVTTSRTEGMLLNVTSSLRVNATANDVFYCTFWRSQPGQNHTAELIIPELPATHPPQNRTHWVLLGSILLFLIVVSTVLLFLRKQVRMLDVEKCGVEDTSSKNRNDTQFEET

[2] = biological target: T1, human PD-L1; assay: inhibition of PD1/PD-L1 binding read as OD 450 nm against log concentration '[NF] ou [Ab]' (fits the competition ELISA of paragraph 396: human PD1 on the plate, biotinylated human PDL1); blocked partner: human PD-1
[3] = biological target: T2, mouse PD-L1 (mouse, UniProt Q9EP73 19-238, limits assumed); assay: sensorgram, response in nm against time in sec, titled 'Sample ID: B11 - by Loading Sample ID' (PD-L1 Mouse loaded, B11 as the sample); concentration of B11 not given
T2 construct: also called murine PDL1

Measured: binding

B1: B11 (Sac7d variant binding to PD-L1, SEQ ID NO: 21) (designed binder)
chain: MVKVKFVIGGEEKEVDTSKIKTVRRIGKYVLFKYDDNGKTGMGLVSEKDAPKELLDMLARAEREKK
notes: also called NF2; NF-B11
binds: all assays above
